In the supplement of paper PMC4683952:
Where a name gives a salt, the structure may show the parent alone. Among all 1,200 compounds or so, about 50 (4%) showed activity. Rule as the data show it: all actives reach 1.3 or more but so do some inactives. The list shows a part of the results.

System: Lgr5 (MarsCy1-Lgr5-EGFP, U2OS)
Assay: cell-surface Lgr5 expression (SCi1 fluorescence, background-subtracted) relative to WT DMSO (fold of DMSO control); higher = more Lgr5 at the plasma membrane, active = hit call of the paper
Conditions: U2OS MarsCy1-Lgr5-EGFP stable; treatment time: overnight; 16 µM; library: Johns Hopkins Clinical Compound Library

cell-surface Lgr5 expression, inactive:
N=C(N)N/N=C/c1c(Cl)cccc1Cl [Guanabenz acetate] 1.19
COc1ccc(C[C@@H]2c3cc(OC)c(OC)cc3CC[N@+]2(C)CCC(=O)OCCCCCOC(=O)CC[N@@+]2(C)CCc3cc(OC)c(OC)cc3[C@H]2Cc2ccc(OC)c(OC)c2)cc1OC [Cisatracurium besylate] 0.966
OCCOCCN1CCN(C(c2ccccc2)c2ccc(Cl)cc2)CC1 (configuration not stated) [Hydroxyzine] 0.988
OCCOCCN1CCN(C(c2ccccc2)c2ccc(Cl)cc2)CC1 (configuration not stated) [Hydroxyzine (Dihydrochloride)] 0.654
C=CC1=C(C(=O)O)N2C(=O)[C@@H](NC(=O)/C(=N\OCC(=O)O)c3csc(N)n3)[C@H]2SC1 [Cefixime] 0.726
Cc1cc(-n2c(=O)[nH]c(=O)n(C)c2=O)ccc1Oc1ccc(SC(F)(F)F)cc1 [Toltrazuril] 1.07
CC(C)COC(=O)c1ccc(N)cc1 [Isobutamben (Isobutyl 4-aminobenzoate)] 0.922
O=C1N(c2ccccc2)c2ccccc2C1(Cc1ccncc1)Cc1ccncc1 [Linopirdine] 0.871
[I-].[K+] [Potassium iodide] 1.02
COc1ccc2[nH]c([S+]([O-])Cc3ncc(C)c(OC)c3C)nc2c1 (configuration not stated) [Omeprazole] 1.01
CC(=O)Nc1ccc(O)cc1 [Acetaminophen] 1.24
CO/N=C(\C(=O)N[C@@H]1C(=O)N2C(C(=O)O)=C(C[N+]3(C)CCCC3)CS[C@H]12)c1csc(N)n1 [Cefepime hydrochloride] 0.86
C=COCC [Ethyl vinyl ether] 1.1
CC(Oc1c(Cl)cccc1Cl)C1=NCCN1 (configuration not stated) [Lofexidine] 1
CCc1cccc2c3c([nH]c12)C(CC)(CC(=O)O)OCC3 (configuration not stated) [Etodolac] 1.15
Cc1noc(NS(=O)(=O)c2ccc(N)cc2)c1C [Sulfisoxazole] 1.03
CC[N+](CC)(CC)CCC(O)(c1ccccc1)C1CCCCC1 (configuration not stated) [Tridihexethyl chloride] 1.12
OC[C@H]1O[C@@H](O[C@H]2[C@H](O)[C@@H](O)[C@@H](O)O[C@@H]2CO)[C@H](O)[C@@H](O)[C@H]1O [alpha-D-Lactose monohydrate] 0.93
CC1(C)S[C@@H]2[C@H](NC(=O)[C@H](NC(=O)N3CCN(S(C)(=O)=O)C3=O)c3ccccc3)C(=O)N2[C@H]1C(=O)O [Mezlocillin sodium] 1.11
CCCCCCCN(CC)CCCC(O)c1ccc(NS(C)(=O)=O)cc1 (configuration not stated) [Ibutilide fumarate] 1.06
OC[C@@H](O)[C@@H](O[C@@H]1O[C@H](CO)[C@H](O)[C@H](O)[C@H]1O)[C@H](O)[C@@H](O)CO [Lactitol monohydrate] 1.05
c1ccc2[nH]c(-c3cscn3)nc2c1 [Thiabendazole] 1.22
CN1[C@@H](CC(=O)c2ccccc2)CCC[C@H]1C[C@H](O)c1ccccc1 [Lobeline (-) Hydrochloride] 1.15
NC(=O)NC(=O)Cc1ccccc1 [Phenacemide (Phenylacetylurea)] 0.523
O=C1OC2(c3ccc(O)cc3Oc3cc(O)ccc32)c2ccccc21 [Fluorescein] 0.746
COc1cnc(NS(=O)(=O)c2ccc(N)cc2)nc1 [Sulfameter] 0.961
Cc1cccc(CN2CCN(C(c3ccccc3)c3ccc(Cl)cc3)CC2)c1 (configuration not stated) [Meclizine] 0.976
CCCCC(C)(O)C/C=C/[C@H]1[C@H](O)CC(=O)[C@@H]1CCCCCCC(=O)OC (mixture of isomers) [Misoprostol] 1.07
CNCCC(Oc1ccccc1OC)c1ccccc1 (configuration not stated) [Nisoxetine hydrochloride] 1.05
COc1ccccc1O [Guaiacol] 1.1
O=NN(CCCl)C(=O)NC1CCCCC1 [Lomustine] 1.37
[Cl][Fe]([Cl])[Cl] [Ferric chloride anhydrous] 0.998
CC(C)NCC(O)COc1cccc2ccccc12 (configuration not stated) [Propranolol] 1.07
CC(=O)N[C@@H]([C@@H](O)[C@H](O)[C@H](O)CO)[C@@H](O)CC(=O)C(=O)O [Aceneuramic acid (N-Acetylneuraminic acid)] 1.16
CCCCCCc1ccc(O)cc1O [4 Hexylresorcinol] 1.06
O=C1CCc2cc(OCCCCc3nnnn3C3CCCCC3)ccc2N1 [Cilostazol] 1.03
CCS(=O)(=O)CCn1c([N+](=O)[O-])cnc1C [Tinidazole] 0.994
O=P(O)(O)C(Cl)(Cl)P(=O)(O)O [Clodronate disodium] 0.683
O=P(O)(O)C(Cl)(Cl)P(=O)(O)O 0.743
CCC1=C(C)CN(C(=O)NCCc2ccc(S(=O)(=O)NC(=O)N[C@H]3CC[C@H](C)CC3)cc2)C1=O [Glimepiride] 1.01
C.CCC(C)C.CCC(CC(C)c1ccccc1)c1ccc(C[N+](C)(C)C)cc1 (configuration not stated) [Cholestyramine resin] 0.898
CCCCn1c(=O)c2c(ncn2CC(C)=O)n(CCCC)c1=O [Denbufylline] 1.44
COc1ccc2cc1Oc1ccc(cc1)C[C@H]1c3cc(c(OC)cc3CCN1C)Oc1c(OC)c(OC)cc3c1[C@H](C2)N(C)CC3 [Tetrandrine (s,s +)] 1.03
OCc1cc(C(O)CNCCCCCCOCCCCc2ccccc2)ccc1O (configuration not stated) [Salmeterol (serevent discus)] 1.19
O=S(=O)([O-])[O-].O=S(=O)([O-])[O-].[Al+3].[Na+] [Aluminum sodium sulfate] 0.71
N=C(N)NCCC[C@H](N)C(=O)O [L-Arginine] 0.917
O=c1oc2cc(O)ccc2c2oc3cc(O)ccc3c12 [Coumestrol] 1.03
C=C1c2c(Cl)ccc(O)c2C(O)=C2C(=O)[C@]3(O)C(O)=C(C(N)=O)C(=O)[C@@H](N(C)C)[C@@H]3[C@@H](O)[C@H]12.O=C(O)c1cc(S(=O)(=O)O)ccc1O [Meclocycline sulfosalicylate salt] 0.705
CNCCC(Oc1ccc(C(F)(F)F)cc1)c1ccccc1 (configuration not stated) [Fluoxetine] 0.305
Cc1nc2n(c(=O)c1CCN1CCC(c3noc4cc(F)ccc34)CC1)CCCC2 [Risperidone] 0.587
CC1(C)S[C@@H]2[C@H](NC(=O)COc3ccccc3)C(=O)N2[C@H]1C(=O)O.CN(C)[C@@H]1C(O)=C(C(=O)NCN2CCN(CCO)CC2)C(=O)[C@@]2(O)C(O)=C3C(=O)c4c(O)cccc4[C@@](C)(O)[C@H]3C[C@@H]12 [Penimepicycline] 0.846
Nc1ncnc2c1ncn2[C@@H]1O[C@H](COP(=O)(O)OP(=O)(O)OP(=O)(O)O)[C@@H](O)[C@H]1O [Adenosine triphosphate disodium (ATP)] 0.944
CC(=O)N[C@H]1[C@H]([C@H](O)[C@H](O)CO)OC(C(=O)O)=C[C@@H]1NC(=N)N [Zanamivir] 1.26
CCN1CC(CCN2CCOCC2)C(c2ccccc2)(c2ccccc2)C1=O (configuration not stated) [Doxapram hydrochloride] 1
CCCCNC(=O)NS(=O)(=O)c1ccc(C)cc1 [Tolbutamide] 0.945
CC(=O)[C@H]1CC[C@H]2[C@@H]3C[C@H](C)C4=CC(=O)CC[C@]4(C)[C@H]3[C@@H](O)C[C@]12C [Medrysone (6-alpha-Methyl-11-beta-Hydroxyprogesterone)] 1.27
CCCCCCN(C)C [N,N-Dimethylhexylamine] 1.05
O=S(=O)(O)CCS [Mesna (2-Mercaptoethanesulfonic acid)] 0.844
O=S(=O)(O)CCS [Mesna (2-Mercaptoethane Sulfonic Acid Sodium Salt)] 0.815
CC(=O)Nc1c(I)c(C(=O)O)c(I)c(N(C)C(C)=O)c1I [Metrizoic acid] 1.1
CC(C)(C)NC[C@H](O)c1ccc(O)c(CO)c1 [Levalbuterol] 0.94
C[C@@H](C1=C(CCN(C)C)Cc2ccccc21)c1ccccn1 [Dimethindene (S, +) maleate] 1.32
Cc1c(C)c2c(c(C)c1O)CC[C@@](C)(CCC[C@H](C)CCC[C@H](C)CCCC(C)C)O2 [Vitamin E] 0.965
CC(C)c1nc(CN(C)C(=O)N[C@H](C(=O)N[C@@H](Cc2ccccc2)C[C@H](O)[C@H](Cc2ccccc2)NC(=O)OCc2cncs2)C(C)C)cs1.Cc1cccc(C)c1OCC(=O)N[C@@H](Cc1ccccc1)[C@@H](O)C[C@H](Cc1ccccc1)NC(=O)[C@H](C(C)C)N1CCCNC1=O [Lopinavir/Ritonavir] 0.373
O=C(O)c1cc(O)c(O)c(O)c1 [Gallic acid] 0.979
CN1CCC[C@H]1c1cccnc1 [Nicotine] 0.465
CCCCCCCCCCCCN [Dodecylamine] 0.823

A section taken from the entries so far, for reference:
cell-surface Lgr5 expression, inactive:
OCCOCCN1CCN(C(c2ccccc2)c2ccc(Cl)cc2)CC1 (configuration not stated) [Hydroxyzine] 0.988
OCCOCCN1CCN(C(c2ccccc2)c2ccc(Cl)cc2)CC1 (configuration not stated) [Hydroxyzine (Dihydrochloride)] 0.654
C=CC1=C(C(=O)O)N2C(=O)[C@@H](NC(=O)/C(=N\OCC(=O)O)c3csc(N)n3)[C@H]2SC1 [Cefixime] 0.726
Cc1cc(-n2c(=O)[nH]c(=O)n(C)c2=O)ccc1Oc1ccc(SC(F)(F)F)cc1 [Toltrazuril] 1.07
CC(C)COC(=O)c1ccc(N)cc1 [Isobutamben (Isobutyl 4-aminobenzoate)] 0.922
O=C1N(c2ccccc2)c2ccccc2C1(Cc1ccncc1)Cc1ccncc1 [Linopirdine] 0.871
[I-].[K+] [Potassium iodide] 1.02
COc1ccc2[nH]c([S+]([O-])Cc3ncc(C)c(OC)c3C)nc2c1 (configuration not stated) [Omeprazole] 1.01
CC(=O)Nc1ccc(O)cc1 [Acetaminophen] 1.24
CO/N=C(\C(=O)N[C@@H]1C(=O)N2C(C(=O)O)=C(C[N+]3(C)CCCC3)CS[C@H]12)c1csc(N)n1 [Cefepime hydrochloride] 0.86
C=COCC [Ethyl vinyl ether] 1.1
CC(Oc1c(Cl)cccc1Cl)C1=NCCN1 (configuration not stated) [Lofexidine] 1
CCc1cccc2c3c([nH]c12)C(CC)(CC(=O)O)OCC3 (configuration not stated) [Etodolac] 1.15
Cc1noc(NS(=O)(=O)c2ccc(N)cc2)c1C [Sulfisoxazole] 1.03
CC[N+](CC)(CC)CCC(O)(c1ccccc1)C1CCCCC1 (configuration not stated) [Tridihexethyl chloride] 1.12
OC[C@H]1O[C@@H](O[C@H]2[C@H](O)[C@@H](O)[C@@H](O)O[C@@H]2CO)[C@H](O)[C@@H](O)[C@H]1O [alpha-D-Lactose monohydrate] 0.93
CC1(C)S[C@@H]2[C@H](NC(=O)[C@H](NC(=O)N3CCN(S(C)(=O)=O)C3=O)c3ccccc3)C(=O)N2[C@H]1C(=O)O [Mezlocillin sodium] 1.11
CCCCCCCN(CC)CCCC(O)c1ccc(NS(C)(=O)=O)cc1 (configuration not stated) [Ibutilide fumarate] 1.06
OC[C@@H](O)[C@@H](O[C@@H]1O[C@H](CO)[C@H](O)[C@H](O)[C@H]1O)[C@H](O)[C@@H](O)CO [Lactitol monohydrate] 1.05
c1ccc2[nH]c(-c3cscn3)nc2c1 [Thiabendazole] 1.22
CN1[C@@H](CC(=O)c2ccccc2)CCC[C@H]1C[C@H](O)c1ccccc1 [Lobeline (-) Hydrochloride] 1.15
